# Assay results: publication doi:10.1101/2021.09.03.458272
# These are yes or no findings as the source states them, for the method shown. In cells and extracts the contact can be indirect. Binding calls can cover weak binding; strength is not graded here. Where a sequence is shown, tags or fusion partners need not be part of it.
# B1: HA-Nrdp1 (pcDNA3.1 3x-HA-Nrdp1) (protein, UniProt Q9H4P4 1-317)
# chain: MGYDVTRFQGDVDEDLICPICSGVLEEPVQAPHCEHAFCNACITQWFSQQQTCPVDRSVVTVAHLRPVPRIMRNMLSKLQIACDNAVFGCSAVVRLDNLMSHLSDCEHNPKRPVTCEQGCGLEMPKDELPNHNCIKHLRSVVQQQQTRIAELEKTSAEHKHQLAEQKRDIQLLKAYMRAIRSVNPNLQNLEETIEYNEILEWVNSLQPARVTRWGGMISTPDAVLQAVIKRSLVESGCPASIVNELIENAHERSWPQGLATLETRQMNRRYYENYVAKRIPGKQAVVVMACENQHMGDDMVQEPGLVMIFAHGVEEI
# B2: GFP-USP8 (protein, UniProt P40818 1-1118)
# chain: MPAVASVPKELYLSSSLKDLNKKTEVKPEKISTKSYVHSALKIFKTAEECRLDRDEERAYVLYMKYVTVYNLIKKRPDFKQQQDYFHSILGPGNIKKAVEEAERLSESLKLRYEEAEVRKKLEEKDRQEEAQRLQQKRQETGREDGGTLAKGSLENVLDSKDKTQKSNGEKNEKCETKEKGAITAKELYTMMTDKNISLIIMDARRMQDYQDSCILHSLSVPEEAISPGVTASWIEAHLPDDSKDTWKKRGNVEYVVLLDWFSSAKDLQIGTTLRSLKDALFKWESKTVLRNEPLVLEGGYENWLLCYPQYTTNAKVTPPPRRQNEEVSISLDFTYPSLEESIPSKPAAQTPPASIEVDENIELISGQNERMGPLNISTPVEPVAASKSDVSPIIQPVPSIKNVPQIDRTKKPAVKLPEEHRIKSESTNHEQQSPQSGKVIPDRSTKPVVFSPTLMLTDEEKARIHAETALLMEKNKQEKELRERQQEEQKEKLRKEEQEQKAKKKQEAEENEITEKQQKAKEEMEKKESEQAKKEDKETSAKRGKEITGVKRQSKSEHETSDAKKSVEDRGKRCPTPEIQKKSTGDVPHTSVTGDSGSGKPFKIKGQPESGILRTGTFREDTDDTERNKAQREPLTRARSEEMGRIVPGLPSGWAKFLDPITGTFRYYHSPTNTVHMYPPEMAPSSAPPSTPPTHKAKPQIPAERDREPSKLKRSYSSPDITQAIQEEEKRKPTVTPTVNRENKPTCYPKAEISRLSASQIRNLNPVFGGSGPALTGLRNLGNTCYMNSILQCLCNAPHLADYFNRNCYQDDINRSNLLGHKGEVAEEFGIIMKALWTGQYRYISPKDFKITIGKINDQFAGYSQQDSQELLLFLMDGLHEDLNKADNRKRYKEENNDHLDDFKAAEHAWQKHKQLNESIIVALFQGQFKSTVQCLTCHKKSRTFEAFMYLSLPLASTSKCTLQDCLRLFSKEEKLTDNNRFYCSHCRARRDSLKKIEIWKLPPVLLVHLKRFSYDGRWKQKLQTSVDFPLENLDLSQYVIGPKNNLKKYNLFSVSNHYGGLDGGHYTAYCKNAARQRWFKFDDHEVSDISVSSVKSSAAYILFYTSLGPRVTDVAT
# Tests used:
# [1] = target: Flag-CLEC16A ΔC (CLEC16A lacking the C-terminal IDPR, AA 1-892) (mouse) (UniProt Q80U30); assay: co-IP
# [2] = target: Flag-CLEC16A WT (wild type full-length CLEC16A, pFLAG-CMV-5a-Clec16a WT) (mouse) (UniProt Q80U30); assay: co-IP
Binder,binding [1],binding [2]
B1,binds,binds
B2,binds,binds
